PubChem BioAssay AID1159578 | Peter MacCallum Cancer Centre | 2015
This is a random part of about 18,000 reagents. About 1,030 of them (5.7%) were called active. 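Inactive calls also include pools with fewer than 3300 nuclei, whose migration was not assessed.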 Raw values are not corrected between plates. Unmarked entries are inactive. No sequences are given here.

Purpose: 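Genome-wide hunt for genes controlling movement of lymphatic endothelial cells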 (primary screen)
Cell system: human lymphatic endothelial cells
Knock-down reagent: siRNA pool against human genes, 40 nM
Duration: 48 h after transfection
Measurement: 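High-content imaging of dye-stained cells in a scratch assay measures filled wound area and nuclei per well; duplicate means given as ratio to mock and robust z-score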
Reading the numbers: migration robust z-score: higher = faster migration into the scratch; migration relative to mock: higher = more scratch area covered than mock; nuclei per well: higher = more cells in the well
Call rule: 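Pools averaging fewer than 3300 nuclei are never called; remaining pools count as changed when migration robust z lies outside -2 to 2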
Meaning of the calls: active = migration changed; inactive = no migration change, or too few cells

gene | migration robust z-score | migration class with cell-count check | migration relative to mock | nuclei per well, duplicate mean
CPLX4 (complexin 4) | 0.6 | migration z between -2 and 2; enough cells | 1.04 | 6348
UQCRH (ubiquinol-cytochrome c reductase hinge protein) | 0.52 | migration z between -2 and 2; enough cells | 0.9 | 6438
IL1A (interleukin 1 alpha) | -1.58 | migration z between -2 and 2; enough cells | 0.5 | 5404
SFRP2 (secreted frizzled related protein 2) | 0.05 | migration z between -2 and 2; enough cells | 0.82 | 4416
CROT (carnitine O-octanoyltransferase) | -0.56 | migration z between -2 and 2; enough cells | 0.74 | 6483
FSHR (follicle stimulating hormone receptor) | 0.68 | migration z between -2 and 2; enough cells | 0.94 | 6716
SPRED1 (sprouty related EVH1 domain containing 1) | 0.87 | migration z between -2 and 2; enough cells | 1.11 | 6596
DIPK1B (divergent protein kinase domain 1B) | 1.14 | migration z between -2 and 2; enough cells | 1.18 | 6716
GARNL3 (GTPase activating Rap/RanGAP domain like 3) | -2.05 (active) | migration z below -2; enough cells | 0.35 | 3574
EIF2B5 (eukaryotic translation initiation factor 2B subunit epsilon) | 0.5 | migration z between -2 and 2; enough cells | 0.9 | 6518
VWA3B (von Willebrand factor A domain containing 3B) | 0.76 | migration z between -2 and 2; enough cells | 1.08 | 5748
ZNF528 (zinc finger protein 528) | 0.12 | migration z between -2 and 2; enough cells | 0.92 | 5728
LINC02908 (long independently transcribed non-coding RNA 2908) | -0.67 | migration z between -2 and 2; enough cells | 0.71 | 5436
UGP2 (UDP-glucose pyrophosphorylase 2) | -0.7 | migration z between -2 and 2; enough cells | 0.67 | 5834
ASCL4 (achaete-scute family bHLH transcription factor 4) | 0.54 | migration z between -2 and 2; enough cells | 1.02 | 4768
JAK2 (Janus kinase 2) | 0 | migration z between -2 and 2; enough cells | 0.8 | 4258
C4BPB (complement component 4 binding protein beta) | 0.58 | migration z between -2 and 2; enough cells | 1.04 | 5653
TLE6 (TLE family member 6, subcortical maternal complex member) | 0.26 | migration z between -2 and 2; enough cells | 0.95 | 4460
ZNF264 (zinc finger protein 264) | -0.22 | migration z between -2 and 2; enough cells | 0.82 | 6674
DDI1 (DDI proteasomal shuttling factor 1) | -1.35 | migration z between -2 and 2; enough cells | 0.54 | 3667
NFE4 (nuclear factor, erythroid 4) | 0.88 | migration z between -2 and 2; enough cells | 1.12 | 6008
MCM3 (minichromosome maintenance complex component 3) | -1.38 | migration z between -2 and 2; enough cells | 0.54 | 7196
SLC23A1 | 0.57 | migration z between -2 and 2; enough cells | 0.92 | 6813
ANKFY1 (ankyrin repeat and FYVE domain containing 1) | -1.18 | migration z between -2 and 2; enough cells | 0.58 | 5438
CES4A (carboxylesterase 4A) | 0.39 | migration z between -2 and 2; enough cells | 0.88 | 6189
CADM4 (cell adhesion molecule 4) | 0.59 | migration z between -2 and 2; enough cells | 1.04 | 6320
SLCO3A1 | -0.5 | migration z between -2 and 2; enough cells | 0.71 | 4588
METRN (meteorin, glial cell differentiation regulator) | 0.22 | migration z between -2 and 2; enough cells | 0.94 | 6204
SLC33A2 | -5.08 | under 3300 nuclei; migration not judged | -0.4 | 2748
BTD (biotinidase) | -0.08 | migration z between -2 and 2; enough cells | 0.79 | 6004
IQSEC1 (IQ motif and Sec7 domain ArfGEF 1) | 1.1 | migration z between -2 and 2; enough cells | 1.17 | 4708
STIM2 (stromal interaction molecule 2) | 0.18 | migration z between -2 and 2; enough cells | 0.93 | 5868
ALG1 (ALG1 chitobiosyldiphosphodolichol beta-mannosyltransferase) | -0.7 | migration z between -2 and 2; enough cells | 0.67 | 5762
HIF1A (hypoxia inducible factor 1 subunit alpha) | 0.88 | migration z between -2 and 2; enough cells | 0.98 | 6198
MRGPRX2 (MAS related GPR family member X2) | -0.78 | migration z between -2 and 2; enough cells | 0.66 | 6590
ANP32CP (acidic nuclear phosphoprotein 32 family member C, pseudogene) | -0.53 | migration z between -2 and 2; enough cells | 0.75 | 7290
NOSIP (nitric oxide synthase interacting protein) | -0.73 | migration z between -2 and 2; enough cells | 0.7 | 5310
RORC (RAR related orphan receptor C) | -1.14 | migration z between -2 and 2; enough cells | 0.58 | 6012
ARHGAP35 (Rho GTPase activating protein 35) | 1.22 | migration z between -2 and 2; enough cells | 1.04 | 5887
LNX2 (ligand of numb-protein X 2) | 0.75 | migration z between -2 and 2; enough cells | 0.95 | 6590
ZBTB22 (zinc finger and BTB domain containing 22) | 0.54 | migration z between -2 and 2; enough cells | 1.02 | 5534
GH2 (growth hormone 2) | 0.61 | migration z between -2 and 2; enough cells | 1.04 | 5096
ZNF784 (zinc finger protein 784) | 0.36 | migration z between -2 and 2; enough cells | 0.98 | 5890
DCXR (dicarbonyl and L-xylulose reductase) | -0.16 | migration z between -2 and 2; enough cells | 0.78 | 5278
NCKIPSD (NCK interacting protein with SH3 domain) | -1.45 | migration z between -2 and 2; enough cells | 0.51 | 5259
ARL2 (ARF like GTPase 2) | 0.06 | migration z between -2 and 2; enough cells | 0.82 | 5404
HNRNPH1 (heterogeneous nuclear ribonucleoprotein H1) | -0.73 | migration z between -2 and 2; enough cells | 0.7 | 5644
BANP (BTG3 associated nuclear protein) | 0.52 | migration z between -2 and 2; enough cells | 1.02 | 4249
PACC1 (proton activated chloride channel 1) | 0.98 | migration z between -2 and 2; enough cells | 1.14 | 5402
ZNF271P (zinc finger protein 271, pseudogene) | -1.06 | migration z between -2 and 2; enough cells | 0.6 | 4617
MRPL21 (mitochondrial ribosomal protein L21) | 1.44 | migration z between -2 and 2; enough cells | 1.26 | 6304
PNMT (phenylethanolamine N-methyltransferase) | -0.06 | migration z between -2 and 2; enough cells | 0.8 | 4280
MORN1 (MORN repeat containing 1) | -0.44 | migration z between -2 and 2; enough cells | 0.77 | 4842
OR9G9 (olfactory receptor family 9 subfamily G member 9) | -1.46 | migration z between -2 and 2; enough cells | 0.5 | 5992
NDUFB10 (NADH:ubiquinone oxidoreductase subunit B10) | 1.25 | migration z between -2 and 2; enough cells | 1.04 | 7350
FAM9C (family with sequence similarity 9 member C) | -2.54 (active) | migration z below -2; enough cells | 0.23 | 4386
LAPTM4A (lysosomal protein transmembrane 4 alpha) | -1.06 | migration z between -2 and 2; enough cells | 0.61 | 4776

Reagents listed above with an active call, once more:
gene | migration robust z-score | migration class with cell-count check | migration relative to mock | nuclei per well, duplicate mean
GARNL3 (GTPase activating Rap/RanGAP domain like 3) | -2.05 (active) | migration z below -2; enough cells | 0.35 | 3574
FAM9C (family with sequence similarity 9 member C) | -2.54 (active) | migration z below -2; enough cells | 0.23 | 4386
